One substance from article PMC10775674 can be followed below.

Sequences of proteins named here, by UniProt entry; tags and fusion partners are left off.
UniProt P08670: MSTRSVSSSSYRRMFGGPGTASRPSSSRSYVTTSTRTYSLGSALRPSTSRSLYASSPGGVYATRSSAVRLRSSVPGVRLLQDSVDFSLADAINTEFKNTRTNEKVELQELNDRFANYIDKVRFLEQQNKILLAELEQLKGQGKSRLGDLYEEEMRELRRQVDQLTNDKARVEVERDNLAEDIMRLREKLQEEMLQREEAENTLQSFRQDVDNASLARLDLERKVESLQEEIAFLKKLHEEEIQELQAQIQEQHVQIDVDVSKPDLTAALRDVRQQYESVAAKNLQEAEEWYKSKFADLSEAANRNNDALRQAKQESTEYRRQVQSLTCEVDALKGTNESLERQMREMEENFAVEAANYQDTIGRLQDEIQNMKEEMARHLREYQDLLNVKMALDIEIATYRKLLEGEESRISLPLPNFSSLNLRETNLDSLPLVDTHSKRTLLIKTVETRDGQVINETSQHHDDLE

These are yes or no findings as the source states them, for the method shown. Binding seen in cells or lysates may run through a third protein. These calls come from enrichment with a bait or labelling near it, and not all partners need be listed. Where a sequence is shown, tags or fusion partners need not be part of it.

This assay addresses T1, HA-NEURL3 (neuralized E3 ubiquitin protein ligase 3, HA-tagged) (UniProt Q96EH8).
T1 sequence: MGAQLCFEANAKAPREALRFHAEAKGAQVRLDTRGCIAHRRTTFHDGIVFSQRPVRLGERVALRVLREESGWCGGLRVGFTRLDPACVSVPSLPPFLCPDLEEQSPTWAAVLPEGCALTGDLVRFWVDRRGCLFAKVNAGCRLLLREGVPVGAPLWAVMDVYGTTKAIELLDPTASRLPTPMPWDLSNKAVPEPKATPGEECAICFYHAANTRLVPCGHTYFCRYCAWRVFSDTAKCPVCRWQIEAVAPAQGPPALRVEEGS
Briefly: affinity purification with mass spectrometry; HA immunoprecipitates from SUNE1 cells transfected with HA-NEURL3 plasmid; SDS-PAGE, silver staining, differential bands analysed by mass spectrometry.

Regarding “endogenous Vimentin (from UniProt P08670 1-466)”, the binding result is recorded as “binds”.
